Test [1] concerns the target T1, purified recombinant human Napi2b antigen consisting of Napi2b-extracellular-loop2 expressed as Fc-fusion-6-His-tagged protein (human) (UniProt O95436).
T1 sequence: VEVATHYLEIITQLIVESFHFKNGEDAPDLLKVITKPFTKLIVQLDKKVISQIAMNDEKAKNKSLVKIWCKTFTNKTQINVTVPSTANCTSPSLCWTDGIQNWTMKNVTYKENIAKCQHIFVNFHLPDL
In words: ELISA on plates coated with 1 µg/mL recombinant human Napi2b extracellular-loop2 Fc-6-His antigen, HRP anti-human kappa light chain detection. Background: ELISA stands for enzyme-linked immunosorbent assay.

For test [2], the target named is human NaPi2b on NaPi2b-positive cell lines OVCAR-3 and HCC-78 (human) (UniProt O95436). In words: flow cytometry on NaPi2b-positive HCC-78 cells, Alexa-dye-labeled anti-human IgG H+L secondary antibody, MFI ratio normalized to the non-specific binding control. In general terms: A flow cytometer gives signals particle by particle.
For test [3] the target is unchanged. In words: flow cytometry on OVCAR-3 and HCC-78 cells.
For test [4] the target is unchanged. Kind of test: flow cytometry on NaPi2b-positive OVCAR-3 cells, Alexa-dye-labeled anti-human IgG H+L secondary antibody, MFI ratio normalized to the non-specific binding control.

Numbering of substitutions follows the chain as printed. Results are given in words; binding and its absence hold for the method and conditions named. Some binding calls cover weakened binding; strength is not graded here. For some of these results: Where a sequence is shown, tags or fusion partners need not be part of it.

B1: AV-15 antibody (antibody, human IgG1, kappa, L234A L235A, V domains shown)
VH: EVQLVQSGAEVVKPGASVKMSCKASGYTFTGYNIHWVKQAPGQGLEWIGAIYPGNGDTSYKQKFRGRATLTADTSTSTVYMELSSLRSEDSAVYYCARGETARATFAYWGQGTLVTVSS
VL: DIQMTQSPSSLSASVGDRVTITCSASQDIGKFLNWYQQKPGKTVKVLIYYSSSLYSGVPSRFSGSGSGTDYTLTISSLQPEDFATYYCQQYSKVPLTFGQGTKLELKR
For the molecule B1, the binding result in test [1] is reported as “binds”.

B2: AV-21 antibody (antibody, human IgG1, kappa, L234A L235A, V domains shown)
VH: B1 VH with Y32Q, N33I, Y52S, G56S, D57G
VL: B1 VL with K31N, S51T, V94L
Consider B2, for which, in test [1], the binding result is “binds”.

B3: Upifitamab (antibody, V domains shown)
VH: B1 VH
VL: B1 VL with K31N, S51T, V94L
As for B3, the binding entry in test [2], in test [3] and in test [4] was “binds” each time.

B4: AV-29 antibody (antibody, human IgG1, kappa, L234A L235A, V domains shown)
VH: B1 VH with H35L, D57G, L70I, T101I
VL: B1 VL with K31N, S51A, V94L
Consider B4, for which, in test [1], the binding entry was “binds”.

B5: AV-18 antibody (antibody, human IgG1, kappa, L234A L235A, V domains shown)
VH: B1 VH with N33I, N55S, D57A
VL: B1 VL with K31N, S51T, V94L
Regarding B5, the binding result in test [1] is “binds”.

The values are drawn from patent US20240190958A1, “NOVEL ANTIBODY DRUG CONJUGATES WITH NOVEL NAPI2B ANTIBODIES, THERAPEUTIC METHODS AND USES THEREOF” (Tubulis GmbH, priority 2022, published 2024).
